Source: ChEMBL document CHEMBL3988442, “University of Dundee, Small-Polar-MMV Screening Library” (2021).

Mtb cholesterol medium: 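Phenotypic screen: M. tuberculosis growth, cholesterol and DPPC medium, 4 days; the read-out is not stated. Tested at 500 µM. The record gives no direction; compounds that gave an IC50 in retests scored well above the rest, so higher reads as more growth inhibition. About 18,000 compounds were tested under these conditions; 5% (about 900) showed 50% or more at least once.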
Mtb glucose medium: 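Phenotypic screen: M. tuberculosis growth, glucose 7H9 medium, 3 days; the read-out is not stated. Compounds at 500 µM. Direction is inferred from retests: higher values go with more growth inhibition. Of about 18,000 compounds tested this way, about 1,400 (7.9%) reached 50% or more in at least one test.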

Values are the deposited “Percent Effect”, in %.
How 0% and 100% were set is not recorded. Most values in the screen are low, and negative values occur.
The compounds are a random part of those screened.

| # | compound | Mtb cholesterol medium | Mtb glucose medium |
|---|---|---|---|
| 1 | `O=C(COC(=O)c1ccco1)Nc1ccc(Cl)cn1` | -16.99% | -5.641% |
| 2 | `Cc1cc(Cl)ccc1C(=O)Nc1ccc(C(N)=O)nc1` | -3.611% | -2.313% |
| 3 | `COc1ccc(S(=O)(=O)N2CC(N)C2)cc1` | 7.621% | 3.492% |
| 4 | `Cc1cc(C(=O)NCCCOCC2CCOC2)c(C)o1` (centres undefined) | -1.503% | -0.6215% |
| 5 | `N#Cc1ccc(NC(=O)CCSCC(N)=O)cc1` | 22.45% | 29.64% |
| 6 | `CCN(Cc1ccc(OC)nc1)[C@H]1COC[C@@H]1O` | -9.988% | -15.51% |
| 7 | `Cc1ccccc1C(=O)N1CCC2(CC1)OCC(C)O2` (centres undefined) | 10.8% | 43.18% |
| 8 | `NC[C@@H]1CCO[C@H]1c1ccccc1` | 13.42% | 13.6% |
| 9 | `O=C(CCNC(=O)c1ccoc1)Nc1cccnc1` | -13.53% | -9.96% |
| 10 | `CC1CCN(CCCNC(=O)c2ccco2)CC1` | 17.99% | 16.74% |
| 11 | `COCCCn1cc(NC(=O)C(C)(C)C)cn1` | 8.048% | 0.8559% |
| 12 | `CCCn1c(SCc2ccon2)n[nH]c1=O` | -4.919% | -4.923% |
| 13 | `CCNc1ncc(C(=O)N2CCCCC2)s1` | 64.32% | 92.69% |
| 14 | `O=C(Cn1nc2c(cc1=O)CCCC2)N1CCOCC1` | 15.21% | -5.699% |
| 15 | `CCC(C)(C)C(=O)NC1CNC[C@@H]1OC` (some centres undefined) | -2.311% | -1.745% |
| 16 | `Cc1cc(=O)[nH]c(CN)n1` | -25.72% | -8.979% |
| 17 | `Cc1cc(C(=O)NCCC(=O)N2CCCC2)c(C)o1` | -1.197% | 3.281% |
| 18 | `Cc1n[nH]c(SCC(=O)N2CCc3ccccc32)n1` | 2.704% | 9.62% |
| 19 | `CCNC(=O)CCS(=O)(=O)C(C)c1ccc(F)cc1` (centres undefined) | 5.748% | 34.06% |
| 20 | `CCN(CCS(=O)(=O)c1ccccc1)CC(C)C#N` (centres undefined) | 3.351% | -6.662% |
| 21 | `COCC(C)(CCO)NCc1nc(C)no1` (centres undefined) | 3.452% | 5.867% |
| 22 | `Cc1ccccc1C1(O)CCNCC1` | -16.81% | -5.376% |
| 23 | `Cc1cc(CN(C)S(=O)(=O)c2c(C)noc2C)no1` | 1.58% | 0.9692% |
| 24 | `Cc1cc(C(=O)NCC2(O)CCSC2)c(C)o1` (centres undefined) | 2.528% | 15.48% |
| 25 | `Cc1ccc(Cl)c(OCC(=O)NN2CCOCC2)c1` | -2.453% | 0.3023% |
| 26 | `Cc1cnc(NC(=O)c2cnccn2)c(Br)c1` | 31.95% | -7.073% |
| 27 | `CCC1(CO)CCCN(C(=O)c2ccc(COC)s2)C1` (centres undefined) | 57.01% | 62.45% |
| 28 | `CC(=O)c1ccc(S(=O)(=O)NCc2ccco2)cc1` | 29.96% | 34.18% |
| 29 | `Cn1cncc1CCNS(=O)(=O)c1cccs1` | 18.48% | -9.957% |
| 30 | `CC(CC(=O)NCCc1n[nH]c(N)n1)c1ccccc1` (centres undefined) | -0.3097% | 9.218% |
| 31 | `COCC(COC)OC(=O)c1ccc(Cl)o1` | 16.07% | 7.14% |
| 32 | `N#Cc1cc(F)c(S(=O)(=O)NCCN)c(F)c1` | -11.7% | 11.67% |
| 33 | `CN(C)[C@@H]1CN(C(=O)c2cccn2C)C[C@H]1CO` | -10.86% | -0.0688% |
| 34 | `CCN1CCN(Cc2nc(C3CCOC3)no2)CC1` (centres undefined) | -10.74% | -3.829% |
| 35 | `O=C(c1cnsn1)N1CCN(C2CC2)C(=O)C1` | -18.49% | -18.54% |
| 36 | `CC(C)N(C)S(=O)(=O)NCCc1cccs1` | 46.74% | 56.77% |
| 37 | `COC(=O)CN(CCc1ccccc1)C(C)=O` | -8.337% | 5.455% |
| 38 | `O=c1oc2ccccc2n1CC1CCOC1` (centres undefined) | 2.438% | 22.1% |
| 39 | `COCCC(C)NC(=O)c1cc(O)nc2ccccc12` (centres undefined) | -23.09% | -4.381% |
| 40 | `CC(CN)(NCc1ccccc1)C(F)(F)F` (centres undefined) | 4.886% | 4.542% |
| 41 | `N#CC1(N)CCOC1` (centres undefined) | 27.76% | 2.029% |
| 42 | `CNc1cc(CN(C)Cc2cccs2)ccn1` | 70.35% | 65.45% |
| 43 | `CCS(=O)(=O)N[C@@H]1CCOC[C@H]1OCCN(C)C` | 1.212% | 1.849% |
| 44 | `CS(=O)(=O)NCCNS(=O)(=O)c1ccc2c(c1)CCC2` | 10.18% | 46.26% |
| 45 | `COC(=O)c1cnc(CO)cn1` | -10.32% | -4.975% |
| 46 | `CSCC(C)C(=O)Nc1cc(C)n[nH]1` (centres undefined) | -6.936% | 3.267% |
| 47 | `CC1CCCN(C(=O)COc2ccccc2C(N)=O)C1` (centres undefined) | -3.979% | 2.914% |
| 48 | `CC(C)C(=O)N1CCC(C(N)=O)(c2ccccc2)CC1` | -12.45% | -0.3084% |
| 49 | `COc1cc(NC(=O)N2CCCC(N)C2)ccc1C` (centres undefined) | 31.85% | 45.72% |
| 50 | `OC[C@@H]1CCCN1Cc1cc(F)cc2cccnc12` | 20.05% | 42.56% |
| 51 | `O=C(NCCCn1cncn1)c1cccnc1O` | 11.63% | 12.23% |
| 52 | `COc1ccccc1C(O)CNc1cccc(C)n1` (centres undefined) | 30.91% | 66.29% |
| 53 | `CCn1cc(Br)c(C(C)=O)n1` | 3.052% | 8.631% |
| 54 | `Cc1ncsc1C(=O)NC1CCNCC1` | -0.7006% | -3.357% |
| 55 | `CCC(C)CN(C)CCN` (centres undefined) | 13.62% | 10.57% |
| 56 | `CC1(C)SCC(C(=O)N2CCc3[nH]cnc3C2)NC1=O` (centres undefined) | 3.22% | 5.214% |
| 57 | `CC(C)Cc1nc(CN2C(=O)CCNC2=O)no1` | -1.962% | 0.2896% |
| 58 | `Cc1nnc(CN(C)CC2CCN(C)C2(C)C)o1` (centres undefined) | -14.97% | 4.775% |
| 59 | `CCc1n[nH]c2c1CN(C(=O)CNC(N)=O)CC2` | -11.5% | -8.96% |
| 60 | `CCC(CC)C(=O)NC1CCN(CC)CC1` | 12.86% | -9.134% |
| 61 | `COc1cccc([C@@H]2C[C@H]2CN)c1` | 35.63% | 38.21% |
| 62 | `O=S(=O)(C1CNC1)N1CCc2ccccc21` | 10.12% | -5.4% |
| 63 | `Brc1ccnc(N2CCCC(CN3CCOCC3)C2)c1` (centres undefined) | -16.13% | -17.92% |
| 64 | `OCC(CO)(CO)NCc1ccc(Cl)cc1Cl` | 29.23% | 16.51% |
| 65 | `NC1CCN(C(=O)Cc2ccccc2)C1` (centres undefined) | -2.628% | 6.669% |
| 66 | `COCCCNC(=O)N1CCCCC1CNS(C)(=O)=O` (centres undefined) | 9.36% | 8.019% |
| 67 | `Cc1noc(C)c1S(=O)(=O)N1CC(c2cccnc2)C1` | 15.89% | 21.3% |
| 68 | `CC(C)CC(=O)Nc1ccc(N2CCN(C)CC2)cc1` | -0.319% | 6.678% |